Test results reported in paper PMC8464548.
Results are given in words; binding and its absence hold for the method and conditions named. In cells and extracts the contact can be indirect. Some binding calls cover weakened binding; strength is not graded here. For part of these data: Sequences can lack the tags named with a protein. Each block holds one binder with its values, some of them ahead of it.

Columns and labels:
[1] = biological target: T1, endogenous TBC1D7 (human (endogenous in HepG2 and SK-Hep1)) (UniProt Q9P0N9); assay: co-IP; endogenous TBC1D7, TSC1 and TSC2 in SK-Hep1 cells with KIF2C knock-down and in HepG2 cells with KIF2C overexpression, against control cells; TNE lysis buffer, protein A/G beads 4 °C 4 h; Western blot
T1 sequence: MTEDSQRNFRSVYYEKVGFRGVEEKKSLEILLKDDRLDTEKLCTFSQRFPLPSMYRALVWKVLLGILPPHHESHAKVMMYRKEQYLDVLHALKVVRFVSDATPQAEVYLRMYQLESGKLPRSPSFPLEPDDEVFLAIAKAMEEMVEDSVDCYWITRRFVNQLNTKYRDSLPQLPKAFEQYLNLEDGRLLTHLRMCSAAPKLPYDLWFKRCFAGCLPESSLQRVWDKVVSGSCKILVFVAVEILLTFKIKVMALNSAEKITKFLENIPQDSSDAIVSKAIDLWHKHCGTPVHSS

[2] = biological target: T2, epitope-tagged KIF2C overexpressed in HEK293T cells (human) (UniProt Q99661); assay: co-IP; epitope-tagged KIF2C and TBC1D7 overexpressed in HEK293T cells; TNE lysis buffer, protein A/G beads 4 °C 4 h; Western blot
T2 sequence: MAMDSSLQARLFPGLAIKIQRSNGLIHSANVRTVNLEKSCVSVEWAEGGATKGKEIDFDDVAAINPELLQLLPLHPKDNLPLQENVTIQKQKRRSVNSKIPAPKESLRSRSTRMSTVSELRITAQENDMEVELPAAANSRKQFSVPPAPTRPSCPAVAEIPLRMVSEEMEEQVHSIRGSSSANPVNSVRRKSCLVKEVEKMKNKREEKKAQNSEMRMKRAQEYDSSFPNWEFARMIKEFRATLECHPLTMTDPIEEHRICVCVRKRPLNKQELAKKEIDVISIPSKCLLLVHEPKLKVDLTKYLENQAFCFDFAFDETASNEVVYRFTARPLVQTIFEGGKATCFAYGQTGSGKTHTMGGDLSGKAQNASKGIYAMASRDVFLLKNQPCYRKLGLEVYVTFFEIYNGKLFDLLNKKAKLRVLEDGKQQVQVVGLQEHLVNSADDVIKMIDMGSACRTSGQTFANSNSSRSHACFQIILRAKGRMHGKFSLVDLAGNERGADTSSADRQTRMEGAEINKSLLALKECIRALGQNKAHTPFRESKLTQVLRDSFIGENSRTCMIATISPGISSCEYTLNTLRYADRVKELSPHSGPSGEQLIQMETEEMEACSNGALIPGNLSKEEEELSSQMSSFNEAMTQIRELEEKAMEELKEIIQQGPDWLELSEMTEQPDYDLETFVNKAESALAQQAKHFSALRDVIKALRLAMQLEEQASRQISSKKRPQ

[3] = biological target: T3, endogenous KIF2C (human (endogenous in HepG2 or SK-Hep1)) (UniProt Q99661); assay: co-IP; endogenous proteins; HepG2 cells by the text, wild type SK-Hep1 cells by the legend; TNE lysis buffer, protein A/G beads 4 °C 4 h; Western blot
T3 sequence: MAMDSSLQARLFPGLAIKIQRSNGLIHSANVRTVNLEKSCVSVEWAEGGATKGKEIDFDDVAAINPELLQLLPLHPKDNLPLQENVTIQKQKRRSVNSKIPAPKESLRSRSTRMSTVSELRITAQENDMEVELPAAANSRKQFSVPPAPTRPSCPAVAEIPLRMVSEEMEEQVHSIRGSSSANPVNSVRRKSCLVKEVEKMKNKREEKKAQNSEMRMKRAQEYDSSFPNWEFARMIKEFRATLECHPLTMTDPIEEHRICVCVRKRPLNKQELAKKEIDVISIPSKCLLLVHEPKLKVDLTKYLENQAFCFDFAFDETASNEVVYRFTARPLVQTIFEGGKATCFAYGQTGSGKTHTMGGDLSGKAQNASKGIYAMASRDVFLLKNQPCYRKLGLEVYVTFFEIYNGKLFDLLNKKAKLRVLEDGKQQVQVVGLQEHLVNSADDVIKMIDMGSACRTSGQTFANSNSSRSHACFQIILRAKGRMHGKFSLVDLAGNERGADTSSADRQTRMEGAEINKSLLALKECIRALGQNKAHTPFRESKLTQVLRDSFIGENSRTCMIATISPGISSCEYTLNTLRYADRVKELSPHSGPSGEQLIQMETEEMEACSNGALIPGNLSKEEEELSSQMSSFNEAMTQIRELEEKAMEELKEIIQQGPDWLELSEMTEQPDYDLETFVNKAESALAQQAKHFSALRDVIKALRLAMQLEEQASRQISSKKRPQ

- binding [1]: binds
B1: tuberous sclerosis complex 1 (TSC1), endogenous (protein, UniProt Q92574 1-1164)
chain: MAQQANVGELLAMLDSPMLGVRDDVTAVFKENLNSDRGPMLVNTLVDYYLETSSQPALHILTTLQEPHDKHLLDRINEYVGKAATRLSILSLLGHVIRLQPSWKHKLSQAPLLPSLLKCLKMDTDVVVLTTGVLVLITMLPMIPQSGKQHLLDFFDIFGRLSSWCLKKPGHVAEVYLVHLHASVYALFHRLYGMYPCNFVSFLRSHYSMKENLETFEEVVKPMMEHVRIHPELVTGSKDHELDPRRWKRLETHDVVIECAKISLDPTEASYEDGYSVSHQISARFPHRSADVTTSPYADTQNSYGCATSTPYSTSRLMLLNMPGQLPQTLSSPSTRLITEPPQATLWSPSMVCGMTTPPTSPGNVPPDLSHPYSKVFGTTAGGKGTPLGTPATSPPPAPLCHSDDYVHISLPQATVTPPRKEERMDSARPCLHRQHHLLNDRGSEEPPGSKGSVTLSDLPGFLGDLASEEDSIEKDKEEAAISRELSEITTAEAEPVVPRGGFDSPFYRDSLPGSQRKTHSAASSSQGASVNPEPLHSSLDKLGPDTPKQAFTPIDLPCGSADESPAGDRECQTSLETSIFTPSPCKIPPPTRVGFGSGQPPPYDHLFEVALPKTAHHFVIRKTEELLKKAKGNTEEDGVPSTSPMEVLDRLIQQGADAHSKELNKLPLPSKSVDWTHFGGSPPSDEIRTLRDQLLLLHNQLLYERFKRQQHALRNRRLLRKVIKAAALEEHNAAMKDQLKLQEKDIQMWKVSLQKEQARYNQLQEQRDTMVTKLHSQIRQLQHDREEFYNQSQELQTKLEDCRNMIAELRIELKKANNKVCHTELLLSQVSQKLSNSESVQQQMEFLNRQLLVLGEVNELYLEQLQNKHSDTTKEVEMMKAAYRKELEKNRSHVLQQTQRLDTSQKRILELESHLAKKDHLLLEQKKYLEDVKLQARGQLQAAESRYEAQKRITQVFELEILDLYGRLEKDGLLKKLEEEKAEAAEAAEERLDCCNDGCSDSMVGHNEEASGHNGETKTPRPSSARGSSGSRGGGGSSSSSSELSTPEKPPHQRAGPFSSRWETTMGEASASIPTTVGSLPSSKSFLGMKARELFRNKSESQCDEDGMTSSLSESLKTELGKDLGVEAKIPLNLDGPHPSPPTPDSVGQLHIMDYNETHHEHS

- binding [2]: binds
B2: epitope-tagged TBC1D7 overexpressed in HEK293T cells (protein, UniProt Q9P0N9 1-293)
chain: MTEDSQRNFRSVYYEKVGFRGVEEKKSLEILLKDDRLDTEKLCTFSQRFPLPSMYRALVWKVLLGILPPHHESHAKVMMYRKEQYLDVLHALKVVRFVSDATPQAEVYLRMYQLESGKLPRSPSFPLEPDDEVFLAIAKAMEEMVEDSVDCYWITRRFVNQLNTKYRDSLPQLPKAFEQYLNLEDGRLLTHLRMCSAAPKLPYDLWFKRCFAGCLPESSLQRVWDKVVSGSCKILVFVAVEILLTFKIKVMALNSAEKITKFLENIPQDSSDAIVSKAIDLWHKHCGTPVHSS

- binding [3]: binds
B3: endogenous TBC1D7 (protein, UniProt Q9P0N9 1-293)
chain: MTEDSQRNFRSVYYEKVGFRGVEEKKSLEILLKDDRLDTEKLCTFSQRFPLPSMYRALVWKVLLGILPPHHESHAKVMMYRKEQYLDVLHALKVVRFVSDATPQAEVYLRMYQLESGKLPRSPSFPLEPDDEVFLAIAKAMEEMVEDSVDCYWITRRFVNQLNTKYRDSLPQLPKAFEQYLNLEDGRLLTHLRMCSAAPKLPYDLWFKRCFAGCLPESSLQRVWDKVVSGSCKILVFVAVEILLTFKIKVMALNSAEKITKFLENIPQDSSDAIVSKAIDLWHKHCGTPVHSS
